Test results as given in PubChem BioAssay AID493014 (National Center for Advancing Translational Sciences (NCATS), 2011).
Some of the results follow. The main result of the screen is listed elsewhere. These columns were measured beside it and carry no call. Compounds called inactive in the main read-out are mostly missing here. Potencies come from curve fits of mixed quality, noted in brackets.

Test: qHTS Assay to Find Inhibitors of Chronic Active B-Cell Receptor Signaling
Conditions: ABC-DLBCL IkBa-CBG/CBR reporter, luminescence ratio (green luciferase fused to IkBa over red control in TMD8 lymphoma cells), 4 h
Outline: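 Doxycycline induced both beetle luciferases in TMD8 lymphoma cells; IKK-driven degradation limits the IkappaBalpha-fused green signal, while red luminescence normalises for cell number and nonspecific effects. Compounds tested up to 46 uM, 4 hrs.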

[1] = measured here: CBR red luminescence, cell number
[2] = measured here: IkBa-CBG green luminescence

Row | Structure (SMILES) | AC50 [1] | AC50 [2]
1 | CC(=O)c1c(C)n([O-])c2ccccc2[n+]1=O | 0.00461 µM [rising, full curve, poor fit] | –
2 | O=C(NCCN1CCN(c2cccc(Cl)c2)CC1)c1ccc(CSc2nc3ccncc3[nH]2)cc1 | 20 µM [falling, partial curve] | –
3 | Cc1ccc(C)c(-n2cc(CNCCCn3cccn3)c(-c3ccccc3)n2)c1 | 35.5 µM [falling, single point] | –
4 | O=C(CCCN1C(=O)/C(=C\c2ccccc2)SC1=S)N1CCOCC1 | 5.8 µM [falling, partial curve] | –
5 | CC(CCc1ccccc1)NC(=O)C1CCN(S(=O)(=O)c2cnc[nH]2)CC1 (stereo not given) | 5.8 µM [falling, full curve, poor fit] | –
6 | COc1ccc(C(=O)NC(=S)NCc2ccc(-c3nc4ccccc4o3)cc2)cc1OC | 0.92 µM [rising, full curve, poor fit] | –
7 | Cc1scc(C(=O)NNC(=S)NC(C)c2ccccc2)c1C (stereo not given) | 1.16 µM [rising, full curve] | 25.9 µM [falling, partial curve, poor fit]
8 | O=C(CSc1ccccn1)N1CCOCC1 | 29.1 µM [rising, single point] | –
9 | CCCCCO | 29.1 µM [rising, single point] | –
10 | CC(=O)Nc1ccc(C(=O)N/N=C/c2ccncc2)cc1 | 1.78 µM [falling, full curve, poor fit] | –
11 | CC1Oc2ccccc2N(Cc2ccccc2Cl)C1=O (stereo not given) | 25.9 µM [rising, single point] | –
12 | C/C(=N\NC(=O)c1ccc(NS(=O)(=O)c2cccs2)cc1)c1ccc(Cl)cc1 | 20.6 µM [falling, partial curve] | –
13 | O=C(Nc1ccc2nsnc2c1)c1ccc2c(c1)OCO2 | 0.326 µM [falling, full curve] | –
14 | Cc1ccc(S(=O)(=O)NC2CCCc3ccccc32)cc1C (stereo not given) | 1.84 µM [falling, partial curve, poor fit] | –
15 | O=C(NCCN1CCCC1)c1ccc(Cn2c(=S)[nH]c3cc4c(cc3c2=O)OCO4)cc1 | 35.5 µM [falling, partial curve, poor fit] | –
16 | CC(C)(C)C(=O)NC(c1ccccc1)c1c(O)ccc2ccccc12 (stereo not given) | 31.6 µM [rising, single point] | –
17 | CSCCOC(=O)C1=C(C)Nc2ccc(C)cc2S1 | 0.0517 µM [rising, full curve, poor fit] | –
18 | CCc1c(C(C)O)oc2ccc3c(C)cc(=O)oc3c12 (stereo not given) | 25.1 µM [rising, partial curve, poor fit] | –
19 | Cc1ccc(C(=O)c2cc3ccccc3o2)cc1[N+](=O)[O-] | 3.16 µM [rising, single point] | –
20 | C=CCNC(=O)c1onc(CSc2cc(C)ccc2C)c1C(=O)O | 10 µM [falling, partial curve] | –
21 | CCc1ccccc1NC(=O)CNC(=O)c1cc(C2CC2)nn1-c1ccccc1 | 29.1 µM [falling, single point] | –
22 | Oc1ccc(/C=N/Nc2ncc(Br)cn2)c(O)c1 | 32.6 µM [falling, single point] | –

In another format: two of the compounds above.
Row	Structure (SMILES)	AC50 [1]	AC50 [2]
16	CC(C)(C)C(=O)NC(c1ccccc1)c1c(O)ccc2ccccc12 (stereo not given)	31.6 µM [rising, single point]	–
17	CSCCOC(=O)C1=C(C)Nc2ccc(C)cc2S1	0.0517 µM [rising, full curve, poor fit]	–

The listing continues:

Row | Structure (SMILES) | AC50 [1] | AC50 [2]
23 | CCc1nnc(NC2=NCCC2)s1 | 16.4 µM [falling, partial curve] | –
24 | CC(C)CN1C=C2C(=O)C(C)(OC(=O)C3CCCC3)C(=O)C=C2C=C1c1ccsc1 (stereo not given) | 35.5 µM [rising, single point] | –
25 | O=C(CCN1CCc2ccccc2C1)Nc1ccccc1F | 5.8 µM [falling, partial curve] | –
26 | O=C(Nc1cccc(S(=O)(=O)Nc2ccc(Cl)cc2)c1)c1ccc2c(c1)OCCO2 | 23.1 µM [falling, partial curve] | 13 µM [rising, partial curve, poor fit]
27 | CCOc1ccc(Cn2nnc(C(=O)NCc3ccc(OC)cc3)c2N)cc1 | 32.6 µM [rising, single point] | –
28 | Nc1nnc(COc2ccc(Br)cc2Br)s1 | 1.58 µM [rising, partial curve, poor fit] | –
29 | COc1ccc(-c2cn(-c3ccccc3)c(=S)[nH]2)cc1OC | 22.4 µM [rising, partial curve, poor fit] | –
30 | Cc1ccc(S(=O)(=O)N2CCN(C(=O)N(c3ccccc3)c3ccccc3)CC2)cc1 | 4.61 µM [falling, single point] | –
31 | COCC(C)NC(C(=O)Nc1ccc(C)c(Cl)c1)c1ccccc1 (stereo not given) | 2.91 µM [falling, full curve, poor fit] | –
32 | O=C1NC(=Nc2ccccc2)S/C1=C\c1cccs1 | 1.58 µM [falling, full curve] | –
33 | CC(=O)C1=C(O)C(=O)N(c2ccc(Br)cn2)C1c1ccccc1F (stereo not given) | 17.8 µM [falling, single point] | –
34 | COC(=O)c1ccc(NC(=O)Nc2ccc(F)c(Cl)c2)cc1 | 20.6 µM [falling, partial curve, poor fit] | –
35 | COc1cccc(OC(=O)c2cc3ccccc3oc2=O)c1 | 2.51 µM [rising, partial curve, poor fit] | –
36 | CCO/N=C/C(=O)Nc1ccc(F)cc1F | 10 µM [falling, partial curve] | –
37 | CCCNC(=O)Nc1ccc(C(F)(F)F)cc1 | 7.08 µM [rising, partial curve, poor fit] | –
38 | O=C(Nc1nccs1)c1cc2sccc2n1Cc1ccc(Cl)cc1 | 29.1 µM [rising, partial curve, poor fit] | –
39 | N#C/C(=C/c1ccncc1)c1nc2ccccc2c(=O)[nH]1 | 15.8 µM [falling, partial curve] | –
40 | COc1ccc(Cl)cc1NC(=O)CC(=O)Nc1cc(Cl)ccc1OC | 11.2 µM [rising, partial curve, poor fit] | –
41 | N/C(=N\OC(=O)CC1CCCCC1)c1ccncc1 | 14.1 µM [rising, single point] | –
42 | CCSc1nnc(NC(=O)C2CC(=O)N(Cc3ccccc3)C2)s1 (stereo not given) | 11.2 µM [falling, single point] | –
43 | CSc1cc(/C=N/O)c(SC)s1 | 1.64 µM [rising, partial curve, poor fit] | –
